From patent publication US20190055278 (published 2019) come the findings set out here.

“And” between values parts separate entries of the source, which are not always exact repeats. Equal values may be shown once.

A short description of this data set: general procedure: Fmoc solid-phase peptide synthesis; CTC resin (1.6 mmol/g); DIPCDI (DIC)/HOBt. The conditions noted are these: for crude HPLC purity / crude purity (method not given) / final HPLC purity: HPLC.

With “Cys-Cys-Glu^-Tyr^-Cys^-Cys^-Asn^-Pro^-Ala^-Cys^-Thr^-Gly^-Cys^-Tyr”, the oxidative folding yield (oxidative folding step) is >50% and 83.2%. Also, where the note is “oxidative folding step, run 1”, the “crude HPLC purity” value was “˜40-50%”, the “crude purity (method not given)” value is 60% and the “final HPLC purity” value is reported as greater than 99.0%. Under “oxidative folding step, run 2”, the “crude HPLC purity” value is listed as “˜60-70%”, the “crude purity (method not given)” value amounted to 69.17% and the “final HPLC purity” value was greater than 99%.

Take “H-Cys(Phacm)-Cys(Phacm)-Glu-Tyr-Cys(Phacm)-Cys(Phacm)-Asn-Pro-Ala-Cys(Phacm)-Thr-Gly-Cys(Phacm)-Tyr-OH.TFA”: the “crude purity (method not given)” value (whole synthesis) turned out to be 43.47%.
